In patent publication US20030004148A1, “Regulation of meiosis” (priority 1994, published 2003):
For at least one compound, name, drawing or mass did not settle the structure.

System: male germ cells of cultured fetal mouse testes
Assay: Gonad test

Compound	Gonad test result (semiquantitative) (10 μg/ml)	Gonad test result (semiquantitative) (30 μg/ml)
CC(C)=CCC[C@@H](C)[C@H]1CC[C@H]2C3=C(CC[C@]12C)[C@@]1(C)CC[C@H](O)C(C)(C)[C@@H]1CC3 [4,4-Dimethyl-zymosterol, 4,4-dimethyl-^5α-cholesta-8,24-diene-^3β-ol]	++	
CC(C)=CCC[C@@H](C)[C@H]1CC=C2C3=C(CC[C@@]21C)[C@@]1(C)CC[C@H](O)C(C)(C)[C@@H]1CC3 [4,4-dimethyl-^5α-cholesta-8,14,24-triene-^3β-ol]		+
